No constants are given. Whether binding was seen depends on the method and setting. For part of these data: Binding seen in cells or lysates may run through a third protein. Some results given as binding are weak or reduced against the parent protein; the word gives no strength.
Key:
[1] = biological target: VEGFR1 pY1213 (endogenous phosphoprotein) (human (endogenous in MCF10A, T47D)) (UniProt P17948); test: co-IP; endogenous complexes precipitated from 1 mg of total protein of cell lysate with phosphospecific antibodies overnight at 4°C, protein A/G Dynabeads; blotted with mouse monoclonal anti-GRB2
[2] = biological target: T1, PTPN11_279 tyrosine phosphopeptide probe (human); test: peptide or protein array; total protein of cell lysate (1 mg in 1 mL) of MCF10A, MCF7, T47D or MDA-MB231 over a chip with 160 pY peptide probes (10 replicates, alanine controls), overnight at 4°C; bound GRB2 detected with rabbit anti-GRB2 and Alexa 647 secondary antibody; only the target purified
T1 sequence (peptide, phosphotyrosine at the N-terminus (Y279)): YKNILP

The chains behind the UniProt entries cited, without tags or fusion partners. Where a name states a change or a piece, a line headed by the entry shows the natural chain unless it says otherwise. Residues count along the entry.
UniProt P17948, residues 27-1338: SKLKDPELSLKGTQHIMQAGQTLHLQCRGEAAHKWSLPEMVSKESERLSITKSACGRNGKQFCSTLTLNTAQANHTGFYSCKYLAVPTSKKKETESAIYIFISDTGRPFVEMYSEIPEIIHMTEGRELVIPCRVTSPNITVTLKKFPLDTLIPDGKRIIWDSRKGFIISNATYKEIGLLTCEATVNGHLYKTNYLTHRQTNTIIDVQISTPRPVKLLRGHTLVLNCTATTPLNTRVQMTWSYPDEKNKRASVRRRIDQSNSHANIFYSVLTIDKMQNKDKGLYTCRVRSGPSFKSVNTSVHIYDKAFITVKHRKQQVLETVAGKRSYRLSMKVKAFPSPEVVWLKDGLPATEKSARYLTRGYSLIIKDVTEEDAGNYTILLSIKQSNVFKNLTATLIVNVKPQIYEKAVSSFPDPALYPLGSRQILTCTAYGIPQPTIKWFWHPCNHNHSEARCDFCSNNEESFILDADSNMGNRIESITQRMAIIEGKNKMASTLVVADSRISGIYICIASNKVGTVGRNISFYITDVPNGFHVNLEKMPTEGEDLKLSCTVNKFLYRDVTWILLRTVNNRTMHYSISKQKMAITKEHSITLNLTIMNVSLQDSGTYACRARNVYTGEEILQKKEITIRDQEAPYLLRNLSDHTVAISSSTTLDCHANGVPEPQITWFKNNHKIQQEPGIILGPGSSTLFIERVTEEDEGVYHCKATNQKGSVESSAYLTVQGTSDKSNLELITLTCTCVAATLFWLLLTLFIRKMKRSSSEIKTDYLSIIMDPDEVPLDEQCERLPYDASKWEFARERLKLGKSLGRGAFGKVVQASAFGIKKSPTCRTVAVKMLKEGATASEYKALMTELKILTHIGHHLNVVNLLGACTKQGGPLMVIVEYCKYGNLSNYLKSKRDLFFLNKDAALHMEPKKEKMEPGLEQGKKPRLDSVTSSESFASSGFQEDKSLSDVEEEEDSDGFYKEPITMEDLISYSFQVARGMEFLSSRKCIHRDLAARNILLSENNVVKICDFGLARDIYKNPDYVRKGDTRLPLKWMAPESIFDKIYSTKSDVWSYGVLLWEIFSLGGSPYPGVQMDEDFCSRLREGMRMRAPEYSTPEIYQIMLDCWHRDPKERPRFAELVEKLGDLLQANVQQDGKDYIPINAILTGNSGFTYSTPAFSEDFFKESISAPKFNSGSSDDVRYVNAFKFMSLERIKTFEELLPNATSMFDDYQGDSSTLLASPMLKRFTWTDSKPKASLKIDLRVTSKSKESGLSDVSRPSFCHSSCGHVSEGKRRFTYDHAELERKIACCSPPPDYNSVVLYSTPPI
UniProt O14654: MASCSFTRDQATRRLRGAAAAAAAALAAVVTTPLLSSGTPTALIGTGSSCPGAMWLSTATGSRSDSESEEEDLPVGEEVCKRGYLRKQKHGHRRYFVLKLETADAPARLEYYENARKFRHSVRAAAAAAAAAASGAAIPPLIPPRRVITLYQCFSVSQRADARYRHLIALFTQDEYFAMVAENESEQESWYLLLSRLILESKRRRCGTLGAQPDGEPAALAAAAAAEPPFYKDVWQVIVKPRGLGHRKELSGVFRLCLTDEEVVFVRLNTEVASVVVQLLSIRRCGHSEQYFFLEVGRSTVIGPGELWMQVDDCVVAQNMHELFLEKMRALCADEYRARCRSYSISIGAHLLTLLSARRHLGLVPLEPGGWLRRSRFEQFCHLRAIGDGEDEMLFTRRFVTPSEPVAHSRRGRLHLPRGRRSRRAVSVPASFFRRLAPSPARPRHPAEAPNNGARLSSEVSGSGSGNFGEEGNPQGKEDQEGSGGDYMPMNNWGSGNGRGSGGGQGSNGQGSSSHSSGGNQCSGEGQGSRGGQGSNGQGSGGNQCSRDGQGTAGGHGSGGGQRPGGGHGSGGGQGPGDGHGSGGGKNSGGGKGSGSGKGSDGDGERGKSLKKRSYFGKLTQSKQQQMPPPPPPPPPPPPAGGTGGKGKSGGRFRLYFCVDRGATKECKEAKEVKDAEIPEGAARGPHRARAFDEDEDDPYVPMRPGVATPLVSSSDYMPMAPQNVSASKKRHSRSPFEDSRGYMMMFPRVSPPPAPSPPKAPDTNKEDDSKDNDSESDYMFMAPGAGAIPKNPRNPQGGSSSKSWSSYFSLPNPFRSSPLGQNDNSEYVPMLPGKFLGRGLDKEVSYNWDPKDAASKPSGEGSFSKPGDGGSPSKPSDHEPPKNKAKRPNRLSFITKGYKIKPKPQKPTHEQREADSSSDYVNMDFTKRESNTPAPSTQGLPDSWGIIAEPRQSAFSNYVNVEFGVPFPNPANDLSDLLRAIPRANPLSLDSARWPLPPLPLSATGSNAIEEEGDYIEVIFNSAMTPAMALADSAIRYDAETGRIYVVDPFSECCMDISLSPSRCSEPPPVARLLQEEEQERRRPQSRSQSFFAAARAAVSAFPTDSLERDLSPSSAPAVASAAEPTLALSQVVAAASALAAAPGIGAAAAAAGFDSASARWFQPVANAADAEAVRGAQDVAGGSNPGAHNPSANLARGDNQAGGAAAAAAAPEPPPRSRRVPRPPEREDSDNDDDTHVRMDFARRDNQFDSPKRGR
UniProt O14974: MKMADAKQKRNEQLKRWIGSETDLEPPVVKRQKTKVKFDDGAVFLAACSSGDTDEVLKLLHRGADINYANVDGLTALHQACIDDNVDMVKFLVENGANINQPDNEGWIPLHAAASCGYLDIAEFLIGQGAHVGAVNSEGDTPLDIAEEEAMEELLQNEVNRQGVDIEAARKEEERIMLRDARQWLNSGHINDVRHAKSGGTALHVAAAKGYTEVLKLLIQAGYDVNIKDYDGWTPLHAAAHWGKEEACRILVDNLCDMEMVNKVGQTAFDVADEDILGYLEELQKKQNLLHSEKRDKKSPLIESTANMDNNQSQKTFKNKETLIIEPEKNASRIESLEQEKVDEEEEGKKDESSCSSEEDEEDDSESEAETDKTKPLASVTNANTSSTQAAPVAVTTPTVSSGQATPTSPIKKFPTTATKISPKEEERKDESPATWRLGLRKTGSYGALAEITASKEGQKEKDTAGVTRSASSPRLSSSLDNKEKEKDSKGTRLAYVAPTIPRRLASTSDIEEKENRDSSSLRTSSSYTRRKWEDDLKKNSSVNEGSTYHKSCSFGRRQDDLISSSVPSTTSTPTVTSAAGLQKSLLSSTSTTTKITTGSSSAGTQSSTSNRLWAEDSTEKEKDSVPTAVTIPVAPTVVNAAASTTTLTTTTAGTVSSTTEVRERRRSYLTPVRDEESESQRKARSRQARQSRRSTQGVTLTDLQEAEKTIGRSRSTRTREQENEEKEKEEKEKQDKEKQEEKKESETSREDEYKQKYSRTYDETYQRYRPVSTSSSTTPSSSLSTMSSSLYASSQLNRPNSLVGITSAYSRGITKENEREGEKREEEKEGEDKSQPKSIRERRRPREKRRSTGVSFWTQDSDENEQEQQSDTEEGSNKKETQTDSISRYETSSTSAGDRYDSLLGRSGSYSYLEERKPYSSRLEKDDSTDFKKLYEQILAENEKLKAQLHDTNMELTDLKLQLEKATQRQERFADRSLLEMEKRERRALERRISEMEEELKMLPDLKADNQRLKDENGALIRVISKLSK
UniProt P35590: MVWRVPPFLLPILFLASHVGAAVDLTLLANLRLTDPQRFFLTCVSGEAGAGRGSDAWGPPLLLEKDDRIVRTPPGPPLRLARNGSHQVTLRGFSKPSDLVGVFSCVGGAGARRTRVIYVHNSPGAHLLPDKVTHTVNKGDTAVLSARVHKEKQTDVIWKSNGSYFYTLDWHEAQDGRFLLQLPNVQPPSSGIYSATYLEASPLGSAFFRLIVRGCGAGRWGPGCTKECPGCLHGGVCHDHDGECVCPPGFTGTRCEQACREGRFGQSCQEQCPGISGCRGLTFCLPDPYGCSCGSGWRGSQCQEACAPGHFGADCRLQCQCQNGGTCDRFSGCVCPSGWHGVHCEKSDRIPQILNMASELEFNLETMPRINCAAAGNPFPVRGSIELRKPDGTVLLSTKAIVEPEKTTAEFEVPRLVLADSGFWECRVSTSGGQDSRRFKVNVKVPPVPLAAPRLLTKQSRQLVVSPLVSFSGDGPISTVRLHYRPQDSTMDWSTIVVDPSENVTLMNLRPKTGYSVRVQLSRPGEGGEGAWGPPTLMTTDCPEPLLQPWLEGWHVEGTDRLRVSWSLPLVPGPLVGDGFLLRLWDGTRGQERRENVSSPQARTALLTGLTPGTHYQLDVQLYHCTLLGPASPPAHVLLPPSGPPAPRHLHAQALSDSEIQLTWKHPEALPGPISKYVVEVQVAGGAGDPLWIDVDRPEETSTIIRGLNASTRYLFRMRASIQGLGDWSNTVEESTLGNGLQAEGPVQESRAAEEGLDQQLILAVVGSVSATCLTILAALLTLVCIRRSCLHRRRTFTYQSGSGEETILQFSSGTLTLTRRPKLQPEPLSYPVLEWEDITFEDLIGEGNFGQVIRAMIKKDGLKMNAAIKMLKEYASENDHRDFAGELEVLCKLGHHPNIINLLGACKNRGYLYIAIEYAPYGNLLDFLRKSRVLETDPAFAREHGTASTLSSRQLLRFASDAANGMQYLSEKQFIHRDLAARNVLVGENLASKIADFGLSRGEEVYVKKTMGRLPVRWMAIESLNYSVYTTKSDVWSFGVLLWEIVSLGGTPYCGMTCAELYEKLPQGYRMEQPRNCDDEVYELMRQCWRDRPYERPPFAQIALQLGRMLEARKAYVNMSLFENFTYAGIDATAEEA
UniProt P62993: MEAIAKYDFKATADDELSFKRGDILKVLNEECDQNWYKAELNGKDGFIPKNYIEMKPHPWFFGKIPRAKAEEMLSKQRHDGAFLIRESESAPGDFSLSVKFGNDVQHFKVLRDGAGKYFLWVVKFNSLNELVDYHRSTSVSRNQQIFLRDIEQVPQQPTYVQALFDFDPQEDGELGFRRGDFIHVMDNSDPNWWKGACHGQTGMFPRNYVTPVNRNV

[3] = biological target: T2, PILRA_246 tyrosine phosphopeptide probe (human); test: as above
T2 sequence (peptide, phosphotyrosine at the N-terminus (Y246)): YENIRN

[4] = biological target: T3, IRS4_921 tyrosine phosphopeptide probe (UniProt O14654); test: as above
T3 sequence (peptide, phosphotyrosine at the N-terminus (Y921)): YVNMDF

[5] = biological target: T4, FLT3_955 tyrosine phosphopeptide probe (human); test: as above
T4 sequence (peptide, phosphotyrosine at the N-terminus (Y955)): YQNVDG

[6] = biological target: T5, CSF3R_787 tyrosine phosphopeptide probe (human); test: as above
T5 sequence (peptide, phosphotyrosine at the N-terminus (Y787)): YENLWF

[7] = biological target: MYPT1_68 tyrosine phosphopeptide probe (UniProt O14974); test: as above
[8] = biological target: T6, PDGFRB_716 tyrosine phosphopeptide probe (human); test: as above
T6 sequence (peptide, phosphotyrosine at the N-terminus (Y716)): YSNALP

[9] = biological target: T7, TIE1_1117 tyrosine phosphopeptide probe (UniProt P35590); test: as above
T7 sequence (peptide, phosphotyrosine at the N-terminus (Y1117)): YVNMSL

Measured: binding

GRB2 (endogenous, from cell lysates) (from UniProt P62993 1-217)
binds: all assays above

— publication PMC3694890
